Experimental data: PMC5985592
These are yes or no findings as the source states them, for the method shown. Binding seen in cells or lysates may run through a third protein. Some binding calls cover weakened binding; strength is not graded here. Where a sequence is shown, tags or fusion partners need not be part of it.

Molecular target: T1, carboxy (C)-terminally Myc-tagged Arb1 (S. pombe) (UniProt Q9P7B8)
T1 sequence: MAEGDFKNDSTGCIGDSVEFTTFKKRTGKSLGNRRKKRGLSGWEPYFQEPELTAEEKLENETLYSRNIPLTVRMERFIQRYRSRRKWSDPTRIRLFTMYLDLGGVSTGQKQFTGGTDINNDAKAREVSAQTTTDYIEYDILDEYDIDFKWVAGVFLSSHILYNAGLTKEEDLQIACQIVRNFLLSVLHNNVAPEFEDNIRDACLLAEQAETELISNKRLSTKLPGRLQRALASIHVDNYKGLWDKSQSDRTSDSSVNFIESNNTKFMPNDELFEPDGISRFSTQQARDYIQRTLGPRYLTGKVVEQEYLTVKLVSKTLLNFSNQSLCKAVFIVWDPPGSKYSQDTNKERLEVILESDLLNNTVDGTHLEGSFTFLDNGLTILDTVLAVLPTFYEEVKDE
Assay: co-IP; Myc-IP from soluble extracts of S. pombe cells co-expressing the Myc-tagged bait and FLAG-Ago1; IP buffer (50 mM HEPES-KOH pH 7.5, 140 mM NaCl, 1 mM EDTA, 1% Triton X-100, 0.1% Na-deoxycholate), 4 °C; western blot with anti-Myc and anti-FLAG; wild-type, hsp90-A4, mas5∆, arb2∆ (Arb1-Myc) and wild-type, dcr1∆, hsp90-A4 (Tas3-Myc) backgrounds

binding: binds
B1: N-terminally FLAG-tagged Ago1 (protein, UniProt O74957 2-834)
chain: SYKPSSEIALRPGYGGLGKQITLKANFFQIISLPNETINQYHVIVGDGSRVPRKQSQLIWNSKEVKQYFGSSWMNSVYDGRSMCWSKGDIADGTIKVNIGSESHPREIEFSIQKSSKINLHTLSQFVNSKYSSDPQVLSSIMFLDLLLKKKPSETLFGFMHSFFTGENGVSLGGGVEAWKGFYQSIRPNQGFMSVNVDISSSAFWRNDSLLQILMEYTDCSNVRDLTRFDLKRLSRKFRFLKVTCQHRNNVGTDLANRVYSIEGFSSKSASDSFFVRRLNGEEQKISVAEYFLENHNVRLQYPNLPCILVKNGAMLPIEFCFVVKGQRYTAKLNSDQTANMIRFAVQRPFERVQQIDDFVHQMDWDTDPYLTQYGMKIQKKMLEVPARVLETPSIRYGGDCIERPVSGRWNLRGKRFLDPPRAPIRSWAVMCFTSTRRLPMRGIENFLQTYVQTLTSLGINFVMKKPPVLYADIRGSVEELCITLYKKAEQVGNAPPDYLFFILDKNSPEPYGSIKRVCNTMLGVPSQCAISKHILQSKPQYCANLGMKINVKVGGINCSLIPKSNPLGNVPTLILGGDVYHPGVGATGVSIASIVASVDLNGCKYTAVSRSQPRHQEVIEGMKDIVVYLLQGFRAMTKQQPQRIIYFRDGTSEGQFLSVINDELSQIKEACHSLSPKYNPKILVCTTQKRHHARFFIKNKSDGDRNGNPLPGTIIEKHVTHPYQYDFYLISHPSLQGVSVPVHYTVLHDEIQMPPDQFQTLCYNLCYVYARATSAVSLVPPVYYAHLVSNLARYQDVTADDTFVETSEASMDQEVKPLLALSSKLKTKMWYM
